We go through 1 substance from publication PMC5960086.

Chains of the proteins cited; added tags and fusions are not shown.
UniProt Q7TQN4: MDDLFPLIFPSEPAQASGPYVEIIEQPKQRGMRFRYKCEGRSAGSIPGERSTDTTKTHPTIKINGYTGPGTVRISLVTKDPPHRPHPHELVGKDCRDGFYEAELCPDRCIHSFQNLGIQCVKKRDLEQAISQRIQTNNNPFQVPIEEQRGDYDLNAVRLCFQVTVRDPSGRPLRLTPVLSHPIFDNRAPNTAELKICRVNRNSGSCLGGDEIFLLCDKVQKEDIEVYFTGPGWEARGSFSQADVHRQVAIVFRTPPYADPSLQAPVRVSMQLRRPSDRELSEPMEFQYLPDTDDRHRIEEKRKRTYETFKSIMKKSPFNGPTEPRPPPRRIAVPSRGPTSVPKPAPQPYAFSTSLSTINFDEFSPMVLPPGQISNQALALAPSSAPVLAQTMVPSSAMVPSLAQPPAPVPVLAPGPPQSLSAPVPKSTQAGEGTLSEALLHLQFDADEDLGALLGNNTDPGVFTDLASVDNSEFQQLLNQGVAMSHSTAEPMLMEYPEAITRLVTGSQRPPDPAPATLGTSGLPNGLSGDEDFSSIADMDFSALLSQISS

The target of the assay is T1, STAT1 (signal transducer and activator of transcription 1), acetylated (rat (endogenous in spinal cord tissue)) (UniProt Q9QXK0).
T1 sequence (chain, acetylated on lysine (positions not determined in this paper's experiment)): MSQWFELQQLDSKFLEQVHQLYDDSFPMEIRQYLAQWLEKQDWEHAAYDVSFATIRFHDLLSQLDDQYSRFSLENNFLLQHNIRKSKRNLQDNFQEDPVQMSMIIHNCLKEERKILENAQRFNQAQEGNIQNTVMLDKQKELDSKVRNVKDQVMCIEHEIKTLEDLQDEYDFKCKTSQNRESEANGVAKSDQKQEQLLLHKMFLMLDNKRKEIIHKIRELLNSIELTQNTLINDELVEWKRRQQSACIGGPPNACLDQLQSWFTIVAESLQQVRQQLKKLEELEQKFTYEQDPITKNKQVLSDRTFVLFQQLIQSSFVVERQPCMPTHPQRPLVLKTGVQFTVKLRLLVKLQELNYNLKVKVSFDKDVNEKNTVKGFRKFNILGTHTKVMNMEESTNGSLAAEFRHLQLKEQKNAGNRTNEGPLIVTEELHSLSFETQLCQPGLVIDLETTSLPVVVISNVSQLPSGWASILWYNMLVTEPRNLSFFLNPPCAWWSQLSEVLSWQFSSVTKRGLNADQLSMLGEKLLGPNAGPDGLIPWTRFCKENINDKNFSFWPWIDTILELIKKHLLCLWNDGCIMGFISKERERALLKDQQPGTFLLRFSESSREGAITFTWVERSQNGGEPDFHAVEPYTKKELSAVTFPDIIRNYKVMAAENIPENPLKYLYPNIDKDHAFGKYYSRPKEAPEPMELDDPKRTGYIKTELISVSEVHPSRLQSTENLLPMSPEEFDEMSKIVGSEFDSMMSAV
The assay is described as follows: co-IP; rat spinal cord specimens near the lesion epicenter, 7 days after SCI, with or without VPA treatment; 2 h at 4 °C with 1 μg antibody (STAT1 or NF-κB p65), protein A/G agarose beads overnight, washed three times with lysis buffer, Western blot.

Results are given in words; binding and its absence hold for the method and conditions named. In cells and extracts the contact can be indirect. Some binding calls cover weakened binding; strength is not graded here.

For NF-κB p65 (from UniProt Q7TQN4 1-550), the binding entry is “binds”.
